No signal at the amounts used counts as a negative. A weaker result is weaker than the reference pair of the same experiment. For at least one entry, the source does not settle the construct or the ends of the probe.
Test system: coagulation factor IXa (FIXa) (Homo sapiens)
Assay: inhibition of the protein
Conditions: protein in an extract

Chains of the proteins cited; added tags and fusions are not shown. A line that says so, or that is headed by a name, gives the form on record, which may keep a tag or linker.
coagulation factor IXa (FIXa) (Homo sapiens), one chain, as listed by the source, chain 1 of 2: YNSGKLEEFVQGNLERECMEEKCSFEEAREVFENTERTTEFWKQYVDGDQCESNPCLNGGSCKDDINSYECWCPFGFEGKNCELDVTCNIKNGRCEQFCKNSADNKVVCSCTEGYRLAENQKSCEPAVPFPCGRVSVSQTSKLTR
coagulation factor IXa (FIXa) (Homo sapiens), one chain, as listed by the source, chain 2 of 2: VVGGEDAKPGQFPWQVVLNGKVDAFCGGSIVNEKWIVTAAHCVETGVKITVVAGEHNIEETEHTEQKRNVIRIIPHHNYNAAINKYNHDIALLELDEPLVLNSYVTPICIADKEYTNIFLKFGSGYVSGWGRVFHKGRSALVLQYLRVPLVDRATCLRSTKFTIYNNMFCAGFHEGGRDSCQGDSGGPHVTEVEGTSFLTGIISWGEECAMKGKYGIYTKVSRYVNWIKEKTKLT

## CGCGGUAUAGUCCAC [RB007 antidote oligonucleotide]
All 2'-OMe (SEQ ID NO: 2), modified aPTT, RB007 alone did not affect clotting, dose not given here
  functional effect of the aptamer: not active

## GUGGACUAUACCGCGUAAUGCUGCCUCCAC / CGCGGUAUAGUCCAC [POEGMA-RB005 + RB007 antidote]
Aptamer strand as POEGMA-RB005, RB007 strand all 2'-OMe, modified aPTT, conjugate 392 nM, varying molar excess RB007, dose-dependent reversal of anticoagulant activity, variant of POEGMA-RB005
  functional effect of the aptamer: less active

## GUGGACUAUACCGCGUAAUGCUGCCUCCAC / CGCGGUAUAGUCCAC [RB006 + RB007 antidote]
Aptamer strand as RB006, RB007 strand all 2'-OMe, modified aPTT, conjugate 392 nM, varying molar excess RB007, dose-dependent reversal of anticoagulant …
  functional effect of the aptamer: less active

## GUGGACUAUACCGCGUAAUGCUGCCUCCAC [POEGMA-RB005]
2'-F C/U at 6,7,9,11,12,14,16,19,21,25,26, 2'-OH G at 23, 2'-OMe at all other positions, 3' idT, 5' hexylamino linker-DBCO-POEGMA (EG3 side chains, about 40 kDa) (SEQ ID NO: 1), aPTT assay in pooled human plasma, 37 C, CaCl2, baseline about 30 s, comparable to RB006 (p=0.92), dose not given here
  functional effect of the aptamer: active

## GUGGACUAUACCGCGUAAUGCUGCCUCCAC [RB006 (PEG-RB005, pegnivacogin biosimilar)]
2'-F C/U at 6,7,9,11,12,14,16,19,21,25,26, 2'-OH G at 23, 2'-OMe at all other positions, 3' idT, 5' hexylamino linker-40 kDa 2-arm branched PEG (SEQ ID NO: 1), aPTT assay in pooled human plasma, 37 C, CaCl2, baseline about 30 s, dose not given here
  functional effect of the aptamer: active

— patent US20240131171
